Results: the supplement of paper PMC12009310
Counter-ions that a name gives are not always drawn. ± gives the standard deviation of the averaged measurements. This is one part of the list. Baselines shift from plate to plate; read single values as rough.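 The cells are a mouse kidney inner medullary collecting duct line, silenced either for the ciliary gene Rpgrip1l or with a non-targeting control siRNA.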

test system: mIMCD3; assay: robust z score of cilia incidence (% cells with single cilium) vs plate controls; higher = more ciliated cells; details: 10 µM; 48 h; siRNA: siScr

| SMILES | robust z score of cilia incidence |
| --- | --- |
| CN(C)c1nc(N)c(C(=O)Nc2cccnc2)nc1Cl [ACDPP hydrochloride] | -2.1 ± 0.88 |
| COc1cc(C[C@H]2C(=O)OC[C@@H]2Cc2ccc(OC)c(OC)c2)ccc1O [Arctigenin] | -32.9 ± 40 |
| COC(=O)C1=C(C)NC(C)=C(C(=O)OC)C1c1ccccc1[N+](=O)[O-] [Nifedipine] | 1.6 ± 1.7 |
| CCCCCCCCCCC(C)(C)C(=O)Nc1c(OC)cc(OC)cc1OC | -34.9 ± 16 |
| CCOC(=O)[C@@H](C)Oc1cccc2c(=O)n(CC(=O)Nc3ccc4c(c3)OCCO4)ccc12 | -7.9 ± 6.8 |
| N#C/C(=C(/N)Sc1ccc(N)cc1)c1ccccc1C(F)(F)F | -4.63 ± 2.7 |
| C=CCc1cccc(/C=N/NC(=O)CN2CCN(Cc3ccccc3)CC2)c1O | -49.6 ± 15 |
| CCS(=O)(=O)N(C)[C@H]1c2cc(C#N)ccc2OC(C)(C)[C@@H]1O (racemic) [Chromanol 293B] | 0.831 ± 0.23 |
| COc1ccccc1N1CCN(CCCNc2cc(=O)n(C)c(=O)n2C)CC1 [Urapidil hydrochloride] | -4.46 ± 2.3 |
| COc1ccc(-n2[nH]c3c4c(ncc3c2=O)CCCCC4)cc1 | 0.352 ± 1.1 |
| COc1ccccc1C1(O)CCN(CCCn2c3ccccc3c3ccccc32)CC1 [NNC 05-2090 hydrochloride] | -27.7 ± 19 |
| CC(C)NCC(O)COc1ccccc1-n1cccc1 (stereo not drawn) [Isamoltane hemifumarate] | -5.73 ± 0.43 |
| O=C(/C=C/c1ccc(O)c(O)c1)O[C@H](Cc1ccc(O)c(O)c1)C(=O)O [Rosmarinic acid] | 0.799 ± 2 |
| C[C@]12CC[C@@H]3c4ccc(O)cc4C[C@@H](CCCCCCCCC[S+]([O-])CCCC(F)(F)C(F)(F)F)[C@H]3[C@@H]1CC[C@@H]2O (stereo partly drawn) | -2.85 ± 3.6 |
| Oc1ccc(Nc2nc(-c3ccc(Cl)cc3)cs2)cc1 | -18.6 ± 4.7 |
| O=c1c(-c2ccc(O)cc2)coc2cc(O)cc(O)c12 [Genistein] | -1.04 ± 0.72 |
| CC(C)N1Cc2cc(S(C)(=O)=O)ccc2N(CCN2CC=C(c3c[nH]c4cc(F)ccc34)CC2)S1(=O)=O | -10.1 ± 1 |
| CCCC(=O)Nc1ncnc2c1ncn2[C@@H]1O[C@@H]2COP(=O)(O)O[C@H]2[C@H]1OC(=O)CCC [Dibutyryl-cAMP, sodium salt] | 1.18 ± 1.1 |
| CCCCC/N=c1\ccn(Cc2ccccc2)c2ccccc12 | -12.7 ± 10 |
| CC1=C(/C=C/C(=C/C=C/C(C)=C/C(=O)O)c2ccc(C)cc2)C(C)(C)CCC1 | -30.1 ± 5.4 |

| SMILES | robust z score of cilia incidence |
| --- | --- |
| COc1cc(OC)c(NC(=O)Nc2cc(C)on2)cc1Cl | -6.85 ± 0.17 |
| Nc1ncnc2n[nH]c(Nc3ccc(F)cc3)c12 | 0.327 ± 2.3 |
| Cn1cnnc1Sc1c([N+](=O)[O-])ncn1C | -2.77 ± 2.5 |
| COc1ccc(CCN(C)CCCOc2ccc(S(=O)(=O)c3c(C(C)C)c4ccccc4n3C)cc2)cc1OC | -21.5 ± 13 |
| Oc1nc(-c2ccc(C(F)(F)F)cc2)nc2c1CSCC2 | -1.3 ± 4.8 |
| N#Cc1ccccc1OCC(O)CNCCNC(=O)Nc1ccccc1 (stereo not drawn) | 1.19 ± 0.29 |
| OCCN(CCO)c1nc(N2CCCCC2)c2nc(N(CCO)CCO)nc(N3CCCCC3)c2n1 [Dipyridamole] | -11.6 ± 1.6 |
| C[C@@H](NCc1cc(Br)cc2[nH]c(=O)c(=O)[nH]c12)P(=O)(O)O | 0.516 ± 0.61 |
| CCCCCCN(CCCCCC)C(=O)Cc1c(-c2ccc(Cl)cc2)[nH]c2ccc(Cl)cc12 | -11.6 ± 3.1 |
| CCCCCCCC/C=C\CCCCCCCC(=O)NCc1ccc(O)c(OC)c1 [Olvanil] | -46.4 ± 7 |
| CC(C)[C@H](CO)Nc1nc(Nc2cc(N)cc(Cl)c2)c2ncn(C(C)C)c2n1 [Aminopurvalanol A] | -20 ± 7.8 |
| CCOC(=O)[C@H](CCc1ccccc1)N[C@@H](C)C(=O)N1Cc2cc(OC)c(OC)cc2C[C@H]1C(=O)O [Moexipril hydrochloride] | 1.63 ± 2.1 |
| Cc1ccccc1N=Nc1ccc(NC(=O)c2ccnn2C)c(C)c1 | -9.13 ± 8.2 |
| O=C(Nc1cccc2cccnc12)c1ccc(N2C(=O)[C@@H]3[C@H](C2=O)[C@@H]2C=C[C@H]3C2)cc1 [endo-IWR 1] | -20.4 ± 6.8 |
| COC(=O)Nc1nc2cc(C(=O)c3cccs3)ccc2[nH]1 [Nocodazole] | -35.2 ± 10 |
| O=C(O)C(=O)O.[NH-][C@@H]1CCCC[C@H]1[NH-].[Pt+2] [Oxaliplatin] | -16.4 ± 0.79 |
| CC(C(=O)O)c1ccc(-c2ccccc2)c(F)c1 (stereo not drawn) [Flurbiprofen] | -21 ± 9.6 |
| COc1cccc2c1C(=O)c1c(O)c3c(c(O)c1C2=O)C[C@@](O)(C(=O)CO)C[C@@H]3O[C@H]1C[C@H](N)[C@H](O)[C@H](C)O1 [Doxorubicin hydrochloride] | -35.9 ± 17 |
| O=C1NN(C(=O)Nc2ccc(Br)cc2)[C@@H](c2ccccc2)[C@@H]1c1ccccc1 | -2 ± 3.1 |

test system: mIMCD3; assay: robust z score of cilia incidence (% cells with single cilium) vs plate controls; higher = more ciliated cells (rescue of cilia loss); details: 10 µM; 48 h; siRNA: siRpgrip1l

| SMILES | robust z score of cilia incidence |
| --- | --- |
| CN(C)c1nc(N)c(C(=O)Nc2cccnc2)nc1Cl [ACDPP hydrochloride] | -13 ± 9.9 |
| COc1cc(C[C@H]2C(=O)OC[C@@H]2Cc2ccc(OC)c(OC)c2)ccc1O [Arctigenin] | -30.6 ± 4.9 |
| COC(=O)C1=C(C)NC(C)=C(C(=O)OC)C1c1ccccc1[N+](=O)[O-] [Nifedipine] | -13.8 ± 3.7 |
| CCCCCCCCCCC(C)(C)C(=O)Nc1c(OC)cc(OC)cc1OC | -58 ± 6.5 |
| CCOC(=O)[C@@H](C)Oc1cccc2c(=O)n(CC(=O)Nc3ccc4c(c3)OCCO4)ccc12 | -6.27 ± 0.19 |
| N#C/C(=C(/N)Sc1ccc(N)cc1)c1ccccc1C(F)(F)F | -16.7 ± 0.29 |
| C=CCc1cccc(/C=N/NC(=O)CN2CCN(Cc3ccccc3)CC2)c1O | -48.5 ± 14 |
| CCS(=O)(=O)N(C)[C@H]1c2cc(C#N)ccc2OC(C)(C)[C@@H]1O (racemic) [Chromanol 293B] | -4.84 ± 0.61 |
| COc1ccccc1N1CCN(CCCNc2cc(=O)n(C)c(=O)n2C)CC1 [Urapidil hydrochloride] | -15.7 ± 9.6 |
| COc1ccc(-n2[nH]c3c4c(ncc3c2=O)CCCCC4)cc1 | -6.9 ± 5 |
| COc1ccccc1C1(O)CCN(CCCn2c3ccccc3c3ccccc32)CC1 [NNC 05-2090 hydrochloride] | -29 ± 6.3 |
| CC(C)NCC(O)COc1ccccc1-n1cccc1 (stereo not drawn) [Isamoltane hemifumarate] | -7.48 ± 3.3 |
| O=C(/C=C/c1ccc(O)c(O)c1)O[C@H](Cc1ccc(O)c(O)c1)C(=O)O [Rosmarinic acid] | -8.41 ± 1 |
| C[C@]12CC[C@@H]3c4ccc(O)cc4C[C@@H](CCCCCCCCC[S+]([O-])CCCC(F)(F)C(F)(F)F)[C@H]3[C@@H]1CC[C@@H]2O (stereo partly drawn) | -21.4 ± 3.5 |
| Oc1ccc(Nc2nc(-c3ccc(Cl)cc3)cs2)cc1 | -33.3 ± 7.2 |
| O=c1c(-c2ccc(O)cc2)coc2cc(O)cc(O)c12 [Genistein] | -24.2 ± 1.8 |
| CC(C)N1Cc2cc(S(C)(=O)=O)ccc2N(CCN2CC=C(c3c[nH]c4cc(F)ccc34)CC2)S1(=O)=O | -20.5 ± 17 |
| CCCC(=O)Nc1ncnc2c1ncn2[C@@H]1O[C@@H]2COP(=O)(O)O[C@H]2[C@H]1OC(=O)CCC [Dibutyryl-cAMP, sodium salt] | -13.9 ± 0.92 |
| CCCCC/N=c1\ccn(Cc2ccccc2)c2ccccc12 | -11.6 ± 5.5 |
| CC1=C(/C=C/C(=C/C=C/C(C)=C/C(=O)O)c2ccc(C)cc2)C(C)(C)CCC1 | -41.46 ± 0.26 |

| SMILES | robust z score of cilia incidence |
| --- | --- |
| COc1cc(OC)c(NC(=O)Nc2cc(C)on2)cc1Cl | -16.1 ± 0.6 |
| Nc1ncnc2n[nH]c(Nc3ccc(F)cc3)c12 | -5.29 ± 0.23 |
| Cn1cnnc1Sc1c([N+](=O)[O-])ncn1C | -19.3 ± 1.7 |
| COc1ccc(CCN(C)CCCOc2ccc(S(=O)(=O)c3c(C(C)C)c4ccccc4n3C)cc2)cc1OC | -28.2 ± 20 |
| Oc1nc(-c2ccc(C(F)(F)F)cc2)nc2c1CSCC2 | -10.8 ± 5 |
| N#Cc1ccccc1OCC(O)CNCCNC(=O)Nc1ccccc1 (stereo not drawn) | -7.14 ± 2 |
| OCCN(CCO)c1nc(N2CCCCC2)c2nc(N(CCO)CCO)nc(N3CCCCC3)c2n1 [Dipyridamole] | -22.6 ± 0.26 |
| C[C@@H](NCc1cc(Br)cc2[nH]c(=O)c(=O)[nH]c12)P(=O)(O)O | -158 ± 120 |
| CCCCCCN(CCCCCC)C(=O)Cc1c(-c2ccc(Cl)cc2)[nH]c2ccc(Cl)cc12 | -40.6 ± 1.6 |
| CCCCCCCC/C=C\CCCCCCCC(=O)NCc1ccc(O)c(OC)c1 [Olvanil] | -28.4 ± 4.5 |
| CC(C)[C@H](CO)Nc1nc(Nc2cc(N)cc(Cl)c2)c2ncn(C(C)C)c2n1 [Aminopurvalanol A] | -38.1 ± 10 |
| CCOC(=O)[C@H](CCc1ccccc1)N[C@@H](C)C(=O)N1Cc2cc(OC)c(OC)cc2C[C@H]1C(=O)O [Moexipril hydrochloride] | -5.26 ± 0.69 |
| Cc1ccccc1N=Nc1ccc(NC(=O)c2ccnn2C)c(C)c1 | -14.2 ± 4.4 |
| O=C(Nc1cccc2cccnc12)c1ccc(N2C(=O)[C@@H]3[C@H](C2=O)[C@@H]2C=C[C@H]3C2)cc1 [endo-IWR 1] | -27.5 ± 9.7 |
| COC(=O)Nc1nc2cc(C(=O)c3cccs3)ccc2[nH]1 [Nocodazole] | -29.4 ± 11 |
| O=C(O)C(=O)O.[NH-][C@@H]1CCCC[C@H]1[NH-].[Pt+2] [Oxaliplatin] | -27.56 ± 0.25 |
| CC(C(=O)O)c1ccc(-c2ccccc2)c(F)c1 (stereo not drawn) [Flurbiprofen] | -16.6 ± 6.6 |
| COc1cccc2c1C(=O)c1c(O)c3c(c(O)c1C2=O)C[C@@](O)(C(=O)CO)C[C@@H]3O[C@H]1C[C@H](N)[C@H](O)[C@H](C)O1 [Doxorubicin hydrochloride] | -58.6 ± 4.7 |
| O=C1NN(C(=O)Nc2ccc(Br)cc2)[C@@H](c2ccccc2)[C@@H]1c1ccccc1 | -236 ± 170 |
